Results published in PMC10512220.
These are yes or no findings as the source states them, for the method shown. In cells and extracts the contact can be indirect. A yes stands for co-enrichment or nearness to the bait. Other partners may have been found. Where a sequence is shown, tags or fusion partners need not be part of it.

T1: GUL-1-GFP (Neurospora crassa) (UniProt Q1K842)
T1 sequence: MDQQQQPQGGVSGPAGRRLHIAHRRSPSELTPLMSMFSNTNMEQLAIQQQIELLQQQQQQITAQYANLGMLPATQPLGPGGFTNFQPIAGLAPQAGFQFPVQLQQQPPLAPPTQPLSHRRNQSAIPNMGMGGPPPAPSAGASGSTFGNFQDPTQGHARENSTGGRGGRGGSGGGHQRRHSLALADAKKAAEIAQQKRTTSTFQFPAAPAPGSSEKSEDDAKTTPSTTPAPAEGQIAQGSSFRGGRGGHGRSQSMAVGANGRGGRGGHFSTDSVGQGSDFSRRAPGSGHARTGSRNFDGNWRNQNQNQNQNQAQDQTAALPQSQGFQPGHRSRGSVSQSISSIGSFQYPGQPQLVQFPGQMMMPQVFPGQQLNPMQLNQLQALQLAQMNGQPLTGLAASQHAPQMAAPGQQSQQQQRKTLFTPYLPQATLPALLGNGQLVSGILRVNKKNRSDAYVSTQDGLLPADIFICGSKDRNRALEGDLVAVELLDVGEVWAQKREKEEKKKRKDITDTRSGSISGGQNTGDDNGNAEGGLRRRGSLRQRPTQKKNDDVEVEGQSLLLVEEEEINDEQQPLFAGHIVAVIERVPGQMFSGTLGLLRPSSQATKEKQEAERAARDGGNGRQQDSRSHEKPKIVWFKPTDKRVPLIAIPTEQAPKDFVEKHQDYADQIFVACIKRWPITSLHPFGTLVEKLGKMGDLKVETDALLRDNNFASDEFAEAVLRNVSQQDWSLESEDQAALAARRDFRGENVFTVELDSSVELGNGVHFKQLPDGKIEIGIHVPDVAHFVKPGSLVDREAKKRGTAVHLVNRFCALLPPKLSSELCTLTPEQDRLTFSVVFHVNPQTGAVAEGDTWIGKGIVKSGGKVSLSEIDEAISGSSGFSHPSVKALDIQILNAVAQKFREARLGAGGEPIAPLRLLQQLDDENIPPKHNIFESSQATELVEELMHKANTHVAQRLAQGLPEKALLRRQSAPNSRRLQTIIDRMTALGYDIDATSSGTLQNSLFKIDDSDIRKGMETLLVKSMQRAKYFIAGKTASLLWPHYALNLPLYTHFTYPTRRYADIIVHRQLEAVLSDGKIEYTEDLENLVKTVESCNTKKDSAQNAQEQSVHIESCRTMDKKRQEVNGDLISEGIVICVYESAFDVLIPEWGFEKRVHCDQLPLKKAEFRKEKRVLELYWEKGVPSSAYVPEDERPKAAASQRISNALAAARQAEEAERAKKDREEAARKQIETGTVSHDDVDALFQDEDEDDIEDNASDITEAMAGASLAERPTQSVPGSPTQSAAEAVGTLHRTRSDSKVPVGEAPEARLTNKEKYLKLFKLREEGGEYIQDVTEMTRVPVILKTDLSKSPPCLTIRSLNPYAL

B1: PAB (NCU04799) (protein, UniProt Q7S6N6 1-764)
chain: MAATSTAAVDQLAADLGNTSLDNKAAAPAPIDTSAVPEAQAEGAEAAPTPTAAPHPQASASLYVGELDPSVTEAMLFELFSQIGSVASIRVCRDAVTRRSLGYAYVNYNTTADGEKALEELNYTLIKGRPCRIMWSQRDPALRKTGAGNIFIKNLDAAIDNKALHDTFAAFGNILSCKVAQDEHGNSKGYGFVHYETDEAASQAIKHVNGMLLNEKKVYVGHHIPKKDRQSKFEEMKANFTNVYVKNINNEVTDEEFRELFAKFGEVTSSSLARDQEGKSRGFGFVNFTTHEAAAQAVDELNGKDFRGQDLYVGRAQKKHEREEELRKSYEAARLEKANKYQGVNLYIKNLGDDVDDDKLRAMFSEYGPITSAKVMRDSLIEGSEEKDEKDKENKKEGETKEEEQNEGSEKKTEKKGDRKLGKSKGFGFVCFSNPDDATKAVTEMNQRMVDGKPLYVALAQRKDVRKSQLEASIQARNQLRMQQAAAQAGMPQQYMQAPVYYAGQQPGFMPAPGGRGVPFPQGGIVPGVQGGRPGQYPYQQGGRGGVPPQQMPPMGYPINQFGPGAFPPNTPQYMAAMGQVGALGGGRGGPAGRGPQGIPAGIPQGLQGGPAVPGYPPAGRPQNGGGRGTPRGNANFMAAGRGASPIPGAPADLSAGSFLQAQLATTQDPQAQKQIIGENLFPKIQAIQPALAGKITGMLLEMDNAELINLFEDDNALNVKVQEALAVYDEYLKTQGQQPTQQPAEANGEQPKAEEQKPEEQKA
B2: OS-4 (NCU03071) (enzyme, UniProt Q1K904 1-1367)
chain: MASELSPRAVRFSQTDDEPIARLDKHKTVSRPNPRANDSDNSNPSTDAHDDLHVREQIDELGSLSRYVESHSGSVPSLVPGSLTSSLPLANGSSSRRGASSETYANGTPSRPQRPTAPARTPSNTYQPYNQRRPPQGQPSSYMANNPHARDGSRPRPLAGTSTFRAQEREYVRRLRQQDYNNDYFDAYGSGEQYDSDSEGETPSSEGAFDSYDDAHIMFASNEDIQITEEDLRDPESRERLEWHGMLEAVLTGDVVRQEKKRLIGSNDEAFGKSAHNVELWLGIRARLCGRHLPVQKRVVEDARAALDRSINDIINFAIAGESEAGKPPFEQVRDVVNKIERIESLYPSSRELMTALKPGVYSAYQETCDAVISWYNVNEMINTELSILKKWVGNDALDFSRTKEKSPSGNGLSDESSFLDRLMKEEGLKSLHEDKGSEPKSLKKKSRLDGISRVITKAKDTLIQNAEGFQKRHLPPYIEELLTLISFPSRLIEEIIKMRLAYAKKMKDSAQQNPMMQDQMISQFQVLLKLAIKIKREYMEIARPEPGWDLPPCIDEDFDRVILEALKYYFKLLNWKLSGNKNTFKEAELLFQEWGFGNEIGRYLAHGDVEVAEQFSSLTYKAWNRLSQTFEKEVQRRPKESVPEMTKRYKQILDSVRVRQRMLQRFSRMLNDNYENACDYTIAFEQPQMLHQLYDRLIETGHFQVYSASPEHKDILIIASPTLHNRDDEIQVLMGTFTYEAAIEDPSDPYLLIIKAEDPPQWLGPVHTLRVRNEPLDIKLGHMRLIAGGCQPRLLNARKAFVDRIDMQVDPVVEQRSNLQKVNFRLMEIRKVAFKLSNAFMDSVEAIRRQTRGLNCQELIQTCFIFATEFGQRSLLYMDNNRRTMNNLKLTKLALDWVSFICDDCISSDRKTFRWAVQALEFAMGMTRGRHILGLGEDEYARLRAKVAGCMALLISHFDIMGARSSVAAQAEKKRLEGLVNQIKRLNKGQMLDDNEAAKYYQEHRLEELAKVDNYRKEILLQQSAMGRVLEASNEVDRSLAWLSSTATNFTMRWQQGHFVGGGTFGNVYAAVNLDTGQLMAVKEIRLQDPKLIPTIAGQIRDEMRVLETVDHPNVVSYYGIEVHRDRVYMFMEFCSGGSLANLLEHGRIEDEQVIMVYALQLLEGLAYLHELKIAHRDIKPENILLDHNGIIKYVDFGAAKLIARQGRTLVQDVASTKPNKSMTGTPMYMSPEVIKGENAGHFGAVDIWSLGCVILEMATGRRPWANLDNEWAIMYNIAQGNPPQLPSQDQLSPEGIDFLRRCFMRDSTKRATAMELLQHEWIMTIRNRVVEPATPSSDAGSSTTSQGALNPGNSSRGGFPGDGMY
B3: eIF3G (NCU08046) (protein, UniProt Q6MFP4 1-297)
chain: MAAVQQKHDWADDDELEETSTELPPPQKITNKDGSTTIIEYRLNDNGQKVKTTRRIRYITHREVVNPRVAERKSWTKFGLSVKDGAGPAPDTTSVGENIIFKPSFNWRQEAKDESKDPNAQAMKDKLKDKKVKCRICNGEHFTARCPYKDTMAPIGEAGAAADVAASAADEAAAASQGAAGAGKKGSYVPPALRGAGGAAAAGERMGGKYGERDDLATLRVTNVSEMAEEQELRDMFERFGRVTRVFLAKDRDTGLAKGFAFISFADRSDAVKACAKMDGFGFRHLILRVEFAKKAA
B4: eIF3 subunit (NCU00040) (protein, UniProt Q7RWT1 1-1059)
chain: MPPPPHQKPENVLKRAHELIGVNQAPAALTLLHEHITSKRSRNVPIASLEPVMLLLVELSVEQKKGKLAKDALYQYKNIAQNTNVATIELVLKKFIELAAEKVTAAQAKADEVQSSIEATTSNIDDLEASETPESILLATVSGEQSRDRTDRAIVTPWLKFLWEAYRTVLDILRNNARLEVLYQSTAMQAFDFCLKYTRKTEFRRLCELLRNHVQTAAKYSAQMHAINLNDPDTLQRHLETRFQQLNVAVELELWQEAFRSVEDIHTLLSLSKRPAKNVMMANYYEKLTRIFLVGENYLFHAAAWARYYNLLRQSAALIASGHSKKADNPACSDADLQRAATFVILSALSIPVISTSRSRGAMVDFDEARKNKNSRLTHLLGMAQAPTRAGLFRDALSKSLLRRAQPQIRDLYNILEVDFHPLSICQKISPILAEIGADAEMQKYILPLQQVILTRLFQQLSQVYETVDLEFVESLAQFPEPFQVTRGTIEKFIMNGNKKGDLAIRMDHATGVLSFDADVFSSAKAVHAGSSAGSAESETGSVQRLQSTPSQIVRSQLTRLAEALYTTCRYIDPSFNEARIKARDEALARAKAGAEKEHQEVLARKEIIQTRKDKASEAQAQKEKENARKKLLQEQALQQAEAARLAEEQKLREAKRLANEREQIKRKEVEALLKDMKLEELQGEDIETLDSNKIRMIKLQQLEREKNSVAEKLRITGKRLDHLERAFRKEEAKKLPEDYAKQRERDLAAYERTKAQTLKEAELKHKADVELKHRLTRLMPFYESFRSDLHERRRDEFEKRRRDAEREMEKQINARRKEAREKRIREKREREERERQLREAEERAAREKEEERKRLEARREELQRLKEEKEKEREKLREIAARQQQREEEAMARRKAEKEKLAATPSAYRPPAAAERTEAAAPPRIALAGNRPSWREREAAKAASGETAAPAPAAAEPVAERPRAAAPPAERTEAAAPPRLALAGNRPSWREREAAKAASGGGNAAAVPERSAPPLRAAAPQRAGSGRPENDRDVPPAEPLKASGAPGKYVPKWRREGA
B5: eIF3 subunit (NCU05889) (protein, UniProt Q7S519 1-443)
chain: MASTSPATTNGDVAPANYDLVLKLAPHLDRHMIFPLLEFNAGRLKEDETDKAREILAAKYALLKKTNMTDYVANLYCELEGLKEPPAEYAERRQKVFHQLEKYEQETAKITELLQRDDVVNNLRSDKVANLEFLKKEHDVTIDMVNALYDFGQLQYSCGNYADASELLYRFRVLSTDNDKVSYATWGRLACEILTMNWESAMEELQKVRESIDTRLANNPLAQLQHRTELVHWALFPLFNYDKAREPLLDLFFNAGFINTIQANSPWILRYLTVAVITNRGRAKNAGVHQKQMKDVVRIVKQEAYEYQDPITRFVHALCIDFDFEEAQQQLVLAEEVLRSDFFLLAHADDFVDSARHLIFESYCKIHARISLKDLSARLGLNNDDAEKWIVNLIRDTRLDAKIDYKEGTVVMNHPPSSVYQQVIERTKGGFFRTQVLTAAVAR
B6: eIF3 subunit (NCU01021) (protein, UniProt Q9P748 1-369)
chain: MAVDQESFVHLSRPLAPNVLGFGVSNAPLTVNIQPQAVFSIIDHAVRRDDRDTQSTRVIGALVGVRSEDGSEVEVRSTFAIPHTENEDQVEVDVEYQKNMLALTLKANPRETLLGWYTTSHELNSFSALIQNFFASPETGTFPHPAVHLTIGTEAGATIDTKTYISAPVAVSPERAAESCLFIEVPHKLLFTDAERGALGSVAAAADAESRSAPVVSDIENLAQALETVSDLLERVSGFVGEVLDEERDGNHALGQYLMNALSLAPKVSNLAIENDFNNHIQDVLMVSYLANTIRTQIELSQRLATAKLDEGKEGGEKKDGEGAEGDKKTDGQRGQRGQGGKRGGRSGGAGGRGGREQREPREPREAAE
B7: eIF3 subunit (NCU07929) (protein, UniProt Q7S9Y9 1-359)
chain: MAEVQKDAPIKSVQVEALVVMKIVKHCSTSFPTVATGSIVGMDNNGAIEVTNSFQFPSVDVSSSDSHSDASSLAAAAPRAKANIVYQNEMIRHLKEVNVDANNVGWYTSATMGNFINMSFIENQYHYQKENEKTVALVHDVSRSSQGALSLRAFKLSPEFMTAYKEAKFTTESLRNSKLTYKDIFVELPVNVHNSHLLTSFLHQIPAPPKSAEIPMPASLDDIRRDPVQIPAHPGFESLDLSIDPFLEKTCDLLLDSIESHYTDLNNHQYYQRQLTREQFKITQWQAKRKAENAARLAAKQSPLPEDEWQRLFKLPQEPSRLEGMLNARQVDQYARQVDAFTANITAKMFAVRGNLLPE

What follows are binders tested against T1, GUL-1-GFP (Neurospora crassa) (assay: affinity purification with mass spectrometry; GUL-1-GFP captured from cleared crude N. crassa extract on GFP-Trap magnetic agarose beads overnight at 4°C; washed with 25 mM Tris HCl pH 7.5, 150 mM NaCl, 1.5 mM MgCl2, 1% NP-40, 1 mM EDTA; LC-MS-MS, label-free quantification against a strain expressing GFP alone; three biological replicates; cultures under standard growth conditions, without NH4NO3 for the last 1 h, or with 10^-5 M Nikkomycin Z for the last 1 h).
For B1, the binding was “binds”.
With B2 the binding was “binds”.
For B3, the binding was “binds”.
B4 was tested, and the binding was “binds”.
For B5, the binding was “binds”.
For B6, the binding was “binds”.
For B7, the binding was “binds”.
